Settings in all cases: remark: other sources report otherwise
Test [1] addresses T1, GFP-CLF (35S:GFP-CLF in clf-50) (Arabidopsis), P93831.
T1 chain: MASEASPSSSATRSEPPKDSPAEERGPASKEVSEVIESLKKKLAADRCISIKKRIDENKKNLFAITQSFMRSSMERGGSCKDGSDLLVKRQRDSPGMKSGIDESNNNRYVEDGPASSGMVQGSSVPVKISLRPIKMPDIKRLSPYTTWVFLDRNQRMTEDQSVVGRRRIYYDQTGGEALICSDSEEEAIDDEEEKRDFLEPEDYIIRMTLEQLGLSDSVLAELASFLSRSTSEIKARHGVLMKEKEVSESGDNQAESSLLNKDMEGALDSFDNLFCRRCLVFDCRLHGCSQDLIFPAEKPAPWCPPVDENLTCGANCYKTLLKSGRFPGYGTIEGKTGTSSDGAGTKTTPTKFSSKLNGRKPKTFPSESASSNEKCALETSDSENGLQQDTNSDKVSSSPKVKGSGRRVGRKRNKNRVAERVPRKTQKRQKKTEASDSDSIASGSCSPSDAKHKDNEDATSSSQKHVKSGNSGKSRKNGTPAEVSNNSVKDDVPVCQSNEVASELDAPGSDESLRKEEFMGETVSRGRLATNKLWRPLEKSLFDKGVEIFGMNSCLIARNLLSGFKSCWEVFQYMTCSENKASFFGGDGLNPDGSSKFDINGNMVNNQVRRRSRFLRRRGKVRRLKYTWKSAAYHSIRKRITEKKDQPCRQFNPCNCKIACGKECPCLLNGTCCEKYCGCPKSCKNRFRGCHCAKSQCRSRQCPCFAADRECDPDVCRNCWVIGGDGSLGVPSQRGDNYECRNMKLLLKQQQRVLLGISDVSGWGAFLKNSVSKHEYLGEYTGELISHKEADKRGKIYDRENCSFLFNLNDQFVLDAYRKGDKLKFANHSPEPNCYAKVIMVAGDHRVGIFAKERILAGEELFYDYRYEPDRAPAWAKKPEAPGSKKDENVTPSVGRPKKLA
Put plainly: affinity purification with mass spectrometry; coIP-MS with GFP-tagged baits from Arabidopsis plants (gICU11-GFP icu11-3; 35S:GFP-CLF clf-50; gSWN-GFP), control 35S::GFP; two independent experiments; procedure in SI Appendix.

Test [2] addresses T2, ICU11-3xHA (gICU11-HA in icu11-3) (Arabidopsis), Q3ED68.
T2 chain: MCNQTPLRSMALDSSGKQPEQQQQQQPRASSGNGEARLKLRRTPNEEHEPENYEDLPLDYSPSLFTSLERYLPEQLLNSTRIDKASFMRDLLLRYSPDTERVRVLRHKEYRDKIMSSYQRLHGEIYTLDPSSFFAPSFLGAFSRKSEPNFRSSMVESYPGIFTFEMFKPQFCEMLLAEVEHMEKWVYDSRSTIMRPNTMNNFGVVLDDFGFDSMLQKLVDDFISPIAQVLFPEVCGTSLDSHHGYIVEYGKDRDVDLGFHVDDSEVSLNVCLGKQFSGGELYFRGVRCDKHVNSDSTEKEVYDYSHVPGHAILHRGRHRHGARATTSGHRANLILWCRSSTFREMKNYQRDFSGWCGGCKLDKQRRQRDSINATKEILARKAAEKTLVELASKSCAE
Put plainly: affinity purification with mass spectrometry; coIP-MS with 3xHA-tagged ICU11 as bait from Arabidopsis plants (gICU11-HA icu11-3), control icu11-3; two independent experiments; procedure in SI Appendix.

The target in test [3] is T3, ICU11-eGFP (gICU11-GFP in icu11-3) (Arabidopsis), Q3ED68.
T3 chain: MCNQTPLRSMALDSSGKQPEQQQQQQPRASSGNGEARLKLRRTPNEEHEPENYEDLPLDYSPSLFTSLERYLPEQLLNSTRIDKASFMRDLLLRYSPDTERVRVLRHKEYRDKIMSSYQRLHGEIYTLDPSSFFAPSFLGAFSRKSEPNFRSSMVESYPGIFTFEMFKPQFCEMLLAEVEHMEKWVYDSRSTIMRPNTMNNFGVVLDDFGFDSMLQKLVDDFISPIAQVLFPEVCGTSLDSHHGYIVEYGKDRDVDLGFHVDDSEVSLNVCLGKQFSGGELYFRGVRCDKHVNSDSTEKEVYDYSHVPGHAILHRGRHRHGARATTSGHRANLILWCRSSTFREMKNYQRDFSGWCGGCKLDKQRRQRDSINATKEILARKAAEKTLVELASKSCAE
Put plainly: affinity purification with mass spectrometry; coIP-MS with GFP-tagged baits from Arabidopsis plants (gICU11-GFP icu11-3; 35S:GFP-CLF clf-50; gSWN-GFP), control 35S::GFP; two independent experiments; procedure in SI Appendix.

Results are given in words; binding and its absence hold for the method and conditions named. Binding seen in cells or lysates may run through a third protein. These calls come from enrichment with a bait or labelling near it, and not all partners need be listed. Sequences can lack the tags named with a protein.

B1: SWINGER (SWN), endogenous, Q9ZSM8 1-856 (protein)
chain: MVTDDSNSSGRIKSHVDDDDDGEEEEDRLEGLENRLSELKRKIQGERVRSIKEKFEANRKKVDAHVSPFSSAASSRATAEDNGNSNMLSSRMRMPLCKLNGFSHGVGDRDYVPTKDVISASVKLPIAERIPPYTTWIFLDRNQRMAEDQSVVGRRQIYYEQHGGETLICSDSEEEPEPEEEKREFSEGEDSIIWLIGQEYGMGEEVQDALCQLLSVDASDILERYNELKLKDKQNTEEFSNSGFKLGISLEKGLGAALDSFDNLFCRRCLVFDCRLHGCSQPLISASEKQPYWSDYEGDRKPCSKHCYLQLKAVREVPETCSNFASKAEEKASEEECSKAVSSDVPHAAASGVSLQVEKTDIGIKNVDSSSGVEQEHGIRGKREVPILKDSNDLPNLSNKKQKTAASDTKMSFVNSVPSLDQALDSTKGDQGGTTDNKVNRDSEADAKEVGEPIPDNSVHDGGSSICQPHHGSGNGAIIIAEMSETSRPSTEWNPIEKDLYLKGVEIFGRNSCLIARNLLSGLKTCLDVSNYMRENEVSVFRRSSTPNLLLDDGRTDPGNDNDEVPPRTRLFRRKGKTRKLKYSTKSAGHPSVWKRIAGGKNQSCKQYTPCGCLSMCGKDCPCLTNETCCEKYCGCSKSCKNRFRGCHCAKSQCRSRQCPCFAAGRECDPDVCRNCWVSCGDGSLGEAPRRGEGQCGNMRLLLRQQQRILLGKSDVAGWGAFLKNSVSKNEYLGEYTGELISHHEADKRGKIYDRANSSFLFDLNDQYVLDAQRKGDKLKFANHSAKPNCYAKVMFVAGDHRVGIFANERIEASEELFYDYRYGPDQAPVWARKPEGSKKDDSAITHRRARKHQSH
For B1, in test [1], the binding entry is “binds”.

B2: JMJ14, Q8GUI6 1-954 (protein)
chain: MDQLASLAESVAMEEDSEKQSIKGESSLEPDSTPSSPKITARWNPSEACRPLVDDAPIFYPTNEDFDDPLGYIEKLRSKAESYGICRIVPPVAWRPPCPLKEKKIWENSKFPTRIQFIDLLQNREPIKKSTKTKKRKRRRISKIGYTRRKRDSGCDTASSGSSDSEGKFGFQTGPDFTLEEFQKYDEYFKECYFQSEDHPGSKASENKKFKPKVKDLEGEYWRIVEQATDEVEVYYGADLETKKFGSGFPKYKPGYPISEADQYSQCGWNLNNLSRLPGSVLAFESCDISGVIVPWLYVGMCFSTFCWHVEDHHLYSMNYLHTGDPKVWYGIPGNHAESFENVMKKRLPDLFEEQPDLLHQLVTQLSPRILKEEGVPVYRAVQRSGEFILTFPKAYHSGFNCGFNCAEAVNVAPVDWLVHGQNAVEGYSKQRRKSSLSHDKLLLGAAMEATYCLWELSLSKKKTPVIARWKRVCSEDGLLTKAVKKRVQMEEERLNHLQDGFSLRKMEGDFDNKRERECFLCFYDLHMSASSCKCSPNRFACLIHAKDLCSCESKDRYILIRHTLDELWALVRALEGDLDAIDLWASKCRDQYPSQHPRAREYAYLKSAPCIKSRGSSKVQQREQNNLQLVSERLQSDLTSNKEVQLKQDGDSDVNRHGHESERNHVHGITDKSAVTDVKLGVGGKFDEKKISVESQNPHSVSDVGCSELAKKVDGCLGGKDQNAATNRLSLSVELLSSGSLVVKKLWCSKQAIYPKGFKSRVKFLSVLDPTNLTNYISEVLDAGLLGPLFRVSVEDYPTENFSNVSAEKCWQMVTQRLKLEIIKKCDQPVSSLTSLQPLESINGLEMFGFLSPHVIKVVEALDPKHQLEEYWNQKAVKLFGAEPIKEGEKDDTEKGGASDPSLDRDTRLLRGLLKKATPEELVMMHGLLCGETRNTELKEELSTLVDKMEISP
As for B2, the binding result in test [2] and in test [3] was “binds” each time.
